This is one part of the list. The data scatter; read single values as rough.
Compound: ClCC(=O)N[C@@H]1CCCc2ccccc12
Assay: log2 mean competition ratio of IA-DTB cysteine labelling (DMSO/compound) (log2 ratio); higher = stronger cysteine engagement by compound
Conditions: 50 µM; treatment time: 4 h; cell line lysate: HEK293T
Method: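 IA-DTB competitive cysteine chemoproteomics in HEK293T RIPA lysate. Lysates were treated with compound 29 or 30 at 50 or 200 µM for 4 h, then IA-DTB (500 µM, 1 h), trypsin-digested, NeutrAvidin-enriched and analysed by diaPASEF. Competition ratio = intensity DMSO / intensity compound (n=4 treated, n=64 DMSO); binding: mean log2 CR ≥ 1 and p ≤ 0.05 plus QC filters. Target is the cysteine site.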

The chains behind the UniProt entries cited, without tags or fusion partners. Where a name states a change or a piece, a line headed by the entry shows the natural chain unless it says otherwise. Residues count along the entry.
UniProt Q02487, 258-279: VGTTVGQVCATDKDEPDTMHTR
UniProt P57772: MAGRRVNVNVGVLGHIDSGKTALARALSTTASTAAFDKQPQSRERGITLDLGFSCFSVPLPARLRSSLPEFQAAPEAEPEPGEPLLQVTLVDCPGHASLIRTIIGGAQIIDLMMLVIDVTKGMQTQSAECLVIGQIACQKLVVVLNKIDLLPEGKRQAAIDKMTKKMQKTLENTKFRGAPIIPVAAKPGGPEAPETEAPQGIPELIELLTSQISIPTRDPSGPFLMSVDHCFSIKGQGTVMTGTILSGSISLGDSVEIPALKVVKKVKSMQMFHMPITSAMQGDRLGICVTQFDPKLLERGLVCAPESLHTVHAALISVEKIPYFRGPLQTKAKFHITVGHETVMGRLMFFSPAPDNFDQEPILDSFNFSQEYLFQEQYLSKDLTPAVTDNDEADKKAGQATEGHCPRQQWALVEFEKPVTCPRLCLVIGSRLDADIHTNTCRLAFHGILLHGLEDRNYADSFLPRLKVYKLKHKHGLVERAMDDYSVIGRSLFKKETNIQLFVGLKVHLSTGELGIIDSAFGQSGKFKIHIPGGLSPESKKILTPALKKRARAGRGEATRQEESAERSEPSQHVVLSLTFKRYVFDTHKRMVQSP
UniProt Q14204, whole entry, looked up: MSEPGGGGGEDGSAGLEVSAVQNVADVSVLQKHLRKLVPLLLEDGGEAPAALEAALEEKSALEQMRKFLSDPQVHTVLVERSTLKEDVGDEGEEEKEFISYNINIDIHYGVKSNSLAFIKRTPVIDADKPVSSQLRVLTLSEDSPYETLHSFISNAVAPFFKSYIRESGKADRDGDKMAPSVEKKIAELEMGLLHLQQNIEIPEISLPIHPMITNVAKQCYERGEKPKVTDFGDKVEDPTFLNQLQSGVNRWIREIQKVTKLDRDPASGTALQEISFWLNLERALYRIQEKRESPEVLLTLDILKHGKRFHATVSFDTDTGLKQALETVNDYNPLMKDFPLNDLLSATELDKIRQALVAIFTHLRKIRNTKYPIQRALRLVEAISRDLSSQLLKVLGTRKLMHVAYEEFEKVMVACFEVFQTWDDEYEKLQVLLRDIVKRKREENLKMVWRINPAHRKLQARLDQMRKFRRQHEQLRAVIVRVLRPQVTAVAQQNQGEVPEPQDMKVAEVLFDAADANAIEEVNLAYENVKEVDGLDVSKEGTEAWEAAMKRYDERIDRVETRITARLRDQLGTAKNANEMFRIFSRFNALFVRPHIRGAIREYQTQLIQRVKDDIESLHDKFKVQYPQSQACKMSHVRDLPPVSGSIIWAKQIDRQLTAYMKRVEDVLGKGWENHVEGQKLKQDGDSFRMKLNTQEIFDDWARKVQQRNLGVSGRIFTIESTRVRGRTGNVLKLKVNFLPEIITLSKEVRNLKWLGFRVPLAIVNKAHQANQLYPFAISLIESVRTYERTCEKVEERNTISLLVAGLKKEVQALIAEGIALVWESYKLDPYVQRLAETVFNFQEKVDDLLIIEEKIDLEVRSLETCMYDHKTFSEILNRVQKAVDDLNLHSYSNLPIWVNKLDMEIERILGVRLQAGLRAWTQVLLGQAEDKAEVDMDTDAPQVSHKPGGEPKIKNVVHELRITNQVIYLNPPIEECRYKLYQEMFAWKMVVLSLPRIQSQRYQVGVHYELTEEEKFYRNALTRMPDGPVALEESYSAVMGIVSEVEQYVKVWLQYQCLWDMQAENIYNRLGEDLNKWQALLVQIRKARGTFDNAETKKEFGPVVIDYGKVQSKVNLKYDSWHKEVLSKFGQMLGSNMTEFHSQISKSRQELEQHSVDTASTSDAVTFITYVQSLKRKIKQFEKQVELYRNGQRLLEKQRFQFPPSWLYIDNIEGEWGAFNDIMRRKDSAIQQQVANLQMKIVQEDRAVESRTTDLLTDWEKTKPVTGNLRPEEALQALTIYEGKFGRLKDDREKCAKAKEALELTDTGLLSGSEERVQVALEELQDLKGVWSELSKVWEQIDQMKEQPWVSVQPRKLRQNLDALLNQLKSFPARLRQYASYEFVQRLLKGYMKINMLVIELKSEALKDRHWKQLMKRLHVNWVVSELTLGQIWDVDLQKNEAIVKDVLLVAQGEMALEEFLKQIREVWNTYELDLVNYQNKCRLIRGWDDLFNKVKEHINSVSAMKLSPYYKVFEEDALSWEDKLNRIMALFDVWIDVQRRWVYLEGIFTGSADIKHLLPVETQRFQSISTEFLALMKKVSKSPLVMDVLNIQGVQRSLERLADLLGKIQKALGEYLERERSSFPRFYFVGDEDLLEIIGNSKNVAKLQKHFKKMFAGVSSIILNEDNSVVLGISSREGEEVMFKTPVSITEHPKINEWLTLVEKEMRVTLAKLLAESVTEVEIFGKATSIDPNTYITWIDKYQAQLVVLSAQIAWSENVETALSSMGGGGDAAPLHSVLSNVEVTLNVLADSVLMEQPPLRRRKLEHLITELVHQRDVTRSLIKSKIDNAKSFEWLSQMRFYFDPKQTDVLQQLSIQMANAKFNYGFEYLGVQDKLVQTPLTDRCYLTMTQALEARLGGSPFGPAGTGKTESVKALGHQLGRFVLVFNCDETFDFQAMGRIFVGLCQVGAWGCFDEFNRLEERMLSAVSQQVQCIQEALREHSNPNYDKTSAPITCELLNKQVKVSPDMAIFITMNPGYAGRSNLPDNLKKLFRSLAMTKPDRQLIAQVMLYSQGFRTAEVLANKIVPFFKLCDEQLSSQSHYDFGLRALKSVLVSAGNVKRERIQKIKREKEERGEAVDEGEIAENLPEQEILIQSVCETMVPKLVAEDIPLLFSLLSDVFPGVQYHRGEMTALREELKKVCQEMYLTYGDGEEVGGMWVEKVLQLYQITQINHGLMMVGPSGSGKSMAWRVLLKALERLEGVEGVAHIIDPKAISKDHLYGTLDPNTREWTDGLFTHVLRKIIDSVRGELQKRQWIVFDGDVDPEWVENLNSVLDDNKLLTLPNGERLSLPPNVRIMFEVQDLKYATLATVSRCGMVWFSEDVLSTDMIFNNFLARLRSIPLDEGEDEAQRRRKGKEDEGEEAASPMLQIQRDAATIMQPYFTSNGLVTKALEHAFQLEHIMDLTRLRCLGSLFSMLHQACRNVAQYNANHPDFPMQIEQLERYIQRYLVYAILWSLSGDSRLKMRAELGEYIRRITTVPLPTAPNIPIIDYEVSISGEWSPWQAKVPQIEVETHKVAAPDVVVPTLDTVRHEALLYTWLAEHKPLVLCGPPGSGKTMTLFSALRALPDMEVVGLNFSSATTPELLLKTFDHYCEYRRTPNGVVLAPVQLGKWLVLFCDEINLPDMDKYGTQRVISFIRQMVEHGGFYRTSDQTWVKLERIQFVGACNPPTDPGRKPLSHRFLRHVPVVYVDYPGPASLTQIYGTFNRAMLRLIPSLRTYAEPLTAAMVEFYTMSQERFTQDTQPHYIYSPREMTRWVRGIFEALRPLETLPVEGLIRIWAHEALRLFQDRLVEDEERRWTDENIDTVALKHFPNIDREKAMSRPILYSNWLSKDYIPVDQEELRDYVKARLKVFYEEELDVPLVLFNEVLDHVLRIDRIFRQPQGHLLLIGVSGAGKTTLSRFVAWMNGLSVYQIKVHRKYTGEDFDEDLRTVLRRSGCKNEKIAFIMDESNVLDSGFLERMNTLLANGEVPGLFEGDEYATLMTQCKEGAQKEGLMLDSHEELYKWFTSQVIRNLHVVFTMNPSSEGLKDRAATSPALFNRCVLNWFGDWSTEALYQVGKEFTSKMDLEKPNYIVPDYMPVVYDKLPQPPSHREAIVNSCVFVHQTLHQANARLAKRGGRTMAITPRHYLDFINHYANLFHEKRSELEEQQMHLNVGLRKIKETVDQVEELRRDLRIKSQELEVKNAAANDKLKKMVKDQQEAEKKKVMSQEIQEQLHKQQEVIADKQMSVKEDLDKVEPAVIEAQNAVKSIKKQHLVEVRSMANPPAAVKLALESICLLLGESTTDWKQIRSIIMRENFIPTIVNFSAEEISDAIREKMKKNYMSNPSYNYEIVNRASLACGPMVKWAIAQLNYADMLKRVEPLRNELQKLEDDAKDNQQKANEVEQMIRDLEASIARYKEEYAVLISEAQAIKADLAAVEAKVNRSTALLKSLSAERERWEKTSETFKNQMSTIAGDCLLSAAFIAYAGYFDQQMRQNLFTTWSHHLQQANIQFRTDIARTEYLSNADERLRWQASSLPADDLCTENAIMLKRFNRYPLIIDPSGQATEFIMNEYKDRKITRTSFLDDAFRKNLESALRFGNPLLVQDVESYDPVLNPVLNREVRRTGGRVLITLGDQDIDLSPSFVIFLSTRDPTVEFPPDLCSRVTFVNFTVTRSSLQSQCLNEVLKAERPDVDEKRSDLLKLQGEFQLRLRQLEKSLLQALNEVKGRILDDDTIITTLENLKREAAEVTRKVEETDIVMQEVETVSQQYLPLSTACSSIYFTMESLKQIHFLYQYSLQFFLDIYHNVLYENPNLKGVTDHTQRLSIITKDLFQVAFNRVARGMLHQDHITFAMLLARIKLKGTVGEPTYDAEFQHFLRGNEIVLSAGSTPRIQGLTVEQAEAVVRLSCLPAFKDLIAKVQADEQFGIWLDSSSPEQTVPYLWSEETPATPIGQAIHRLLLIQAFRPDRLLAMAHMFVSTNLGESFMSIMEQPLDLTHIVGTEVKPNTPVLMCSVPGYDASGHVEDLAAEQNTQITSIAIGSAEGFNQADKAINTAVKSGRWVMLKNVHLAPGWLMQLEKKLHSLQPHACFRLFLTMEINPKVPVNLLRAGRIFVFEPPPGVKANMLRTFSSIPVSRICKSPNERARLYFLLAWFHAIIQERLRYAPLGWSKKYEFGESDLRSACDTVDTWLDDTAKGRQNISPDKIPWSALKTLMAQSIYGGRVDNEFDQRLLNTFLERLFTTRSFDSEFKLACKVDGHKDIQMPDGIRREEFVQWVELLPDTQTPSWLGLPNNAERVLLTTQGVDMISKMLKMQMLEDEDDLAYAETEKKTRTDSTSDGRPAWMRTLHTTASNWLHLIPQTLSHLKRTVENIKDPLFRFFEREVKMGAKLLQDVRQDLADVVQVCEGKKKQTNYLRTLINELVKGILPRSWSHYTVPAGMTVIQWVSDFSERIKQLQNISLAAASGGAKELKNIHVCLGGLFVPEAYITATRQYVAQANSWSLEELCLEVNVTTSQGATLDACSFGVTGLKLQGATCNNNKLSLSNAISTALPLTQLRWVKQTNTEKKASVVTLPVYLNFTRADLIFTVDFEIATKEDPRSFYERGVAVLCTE
UniProt Q15029: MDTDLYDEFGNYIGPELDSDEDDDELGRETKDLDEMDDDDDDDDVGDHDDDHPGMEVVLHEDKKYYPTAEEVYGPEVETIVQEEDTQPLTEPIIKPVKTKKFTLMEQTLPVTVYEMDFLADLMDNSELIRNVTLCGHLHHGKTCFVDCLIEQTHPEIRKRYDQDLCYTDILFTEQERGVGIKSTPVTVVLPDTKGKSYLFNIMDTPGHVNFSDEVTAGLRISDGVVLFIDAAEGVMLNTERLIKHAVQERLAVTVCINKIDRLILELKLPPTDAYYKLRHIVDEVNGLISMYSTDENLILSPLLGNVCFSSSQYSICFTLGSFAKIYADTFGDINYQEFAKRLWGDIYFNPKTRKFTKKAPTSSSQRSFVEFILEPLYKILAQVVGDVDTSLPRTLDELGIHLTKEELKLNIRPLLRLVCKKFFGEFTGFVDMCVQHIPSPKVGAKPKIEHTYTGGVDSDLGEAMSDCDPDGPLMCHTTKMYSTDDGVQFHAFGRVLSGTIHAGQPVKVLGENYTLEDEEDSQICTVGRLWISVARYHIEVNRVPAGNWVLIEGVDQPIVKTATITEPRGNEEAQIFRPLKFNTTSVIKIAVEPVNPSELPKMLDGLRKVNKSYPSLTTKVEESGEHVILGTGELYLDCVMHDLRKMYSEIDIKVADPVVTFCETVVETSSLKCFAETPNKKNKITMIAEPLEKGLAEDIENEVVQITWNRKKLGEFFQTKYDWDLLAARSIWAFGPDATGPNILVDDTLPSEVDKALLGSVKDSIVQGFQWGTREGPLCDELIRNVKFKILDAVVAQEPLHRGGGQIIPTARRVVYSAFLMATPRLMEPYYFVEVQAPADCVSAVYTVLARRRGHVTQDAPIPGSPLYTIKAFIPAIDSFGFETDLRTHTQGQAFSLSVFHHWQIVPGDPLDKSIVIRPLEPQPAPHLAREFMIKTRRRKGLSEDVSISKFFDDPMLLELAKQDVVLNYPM
UniProt Q96C19: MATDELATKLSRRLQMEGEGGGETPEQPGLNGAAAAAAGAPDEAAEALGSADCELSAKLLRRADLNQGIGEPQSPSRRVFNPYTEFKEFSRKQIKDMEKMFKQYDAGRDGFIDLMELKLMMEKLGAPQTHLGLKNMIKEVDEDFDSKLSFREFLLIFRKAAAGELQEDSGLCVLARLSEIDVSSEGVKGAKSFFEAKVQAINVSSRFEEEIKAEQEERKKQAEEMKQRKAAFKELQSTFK

Target	log2 mean competition ratio
DSC2 C266 (UniProt Q02487)	-0.00956
EIF4G1 C919 (UniProt Q04637)	-0.191
EEFSEC C289 (UniProt P57772)	0.0871
EIF2S3 C105 (UniProt P41091)	-0.255
EFCAB7 C174 (UniProt A8K855)	0.175
DYNC2H1 C3277 (UniProt Q8NCM8)	0.269
EIF2B3 C379 (UniProt Q9NR50)	-0.0781
DYNC1H1 C3712 (UniProt Q14204)	-0.103
EHBP1 C849 (UniProt Q8NDI1)	0.475
ELL C411 (UniProt P55199)	0.414
EHBP1L1 C422 (UniProt Q8N3D4)	0.358
DYNC1H1 C4438 (UniProt Q14204)	-0.622
EGLN1 C201 (UniProt Q9GZT9)	0.032
DST C5922 (UniProt Q03001)	-0.126
EFTUD2 C166 (UniProt Q15029)	-0.515
DYNC2H1 C3245 (UniProt Q8NCM8)	0.261
DSP C1148 (UniProt P15924)	-0.284
DST C3653 (UniProt Q03001)	-0.18
EED C254	0.449

Target	log2 mean competition ratio
EIF3I C144	-0.274
EIF2S1 C199 (UniProt P05198)	-0.108
DYNC1H1 C978 (UniProt Q14204)	-0.112
EIF5B C1158 (UniProt O60841)	-0.102
ELAC2 C609 (UniProt Q9BQ52)	0.00164
DST C4370 (UniProt Q03001)	-0.263
EEFSEC C406 (UniProt P57772)	0.000284
EIF4E3 C69 (UniProt Q8N5X7)	-0.196
DYNC2H1 C2295 (UniProt Q8NCM8)	-0.23
EFHD2 C172 (UniProt Q96C19)	0.352
EFTUD2 C780 (UniProt Q15029)	0.114
DTL C136 (UniProt Q9NZJ0)	-0.109
DYNC1H1 C2639 (UniProt Q14204)	0.0638
DSC2 C841 (UniProt Q02487)	-0.0508
EIF4G3 C1411	-0.199
DTYMK C31 (UniProt P23919)	0.343
DTX3L C250 (UniProt Q8TDB6)	0.0253
EIF3I C76	-0.174

Same assay, conditions: 200 µM; treatment time: 4 h; cell line lysate: HEK293T

Target	log2 mean competition ratio
DSC2 C266 (UniProt Q02487)	0.622
EIF4G1 C919 (UniProt Q04637)	-0.0318
EEFSEC C289 (UniProt P57772)	0.0719
EIF2S3 C105 (UniProt P41091)	0.0439
EFCAB7 C174 (UniProt A8K855)	0.377
DYNC2H1 C3277 (UniProt Q8NCM8)	0.152
EIF2B3 C379 (UniProt Q9NR50)	0.0224
DYNC1H1 C3712 (UniProt Q14204)	0.115
EHBP1 C849 (UniProt Q8NDI1)	-0.079
ELL C411 (UniProt P55199)	-0.386
EHBP1L1 C422 (UniProt Q8N3D4)	0.233
DYNC1H1 C4438 (UniProt Q14204)	0.0898
EGLN1 C201 (UniProt Q9GZT9)	-0.188
DST C5922 (UniProt Q03001)	0.0425
EFTUD2 C166 (UniProt Q15029)	0.213
DYNC2H1 C3245 (UniProt Q8NCM8)	-0.0783
DSP C1148 (UniProt P15924)	0.369
DST C3653 (UniProt Q03001)	-0.193
EED C254	0.237

Target	log2 mean competition ratio
EIF3I C144	0.12
EIF2S1 C199 (UniProt P05198)	0.289
DYNC1H1 C978 (UniProt Q14204)	0.109
EIF5B C1158 (UniProt O60841)	-0.123
ELAC2 C609 (UniProt Q9BQ52)	-0.29
DST C4370 (UniProt Q03001)	-0.235
EEFSEC C406 (UniProt P57772)	0.208
EIF4E3 C69 (UniProt Q8N5X7)	-0.148
DYNC2H1 C2295 (UniProt Q8NCM8)	0.355
EFHD2 C172 (UniProt Q96C19)	-0.474
EFTUD2 C780 (UniProt Q15029)	0.249
DTL C136 (UniProt Q9NZJ0)	-0.248
DYNC1H1 C2639 (UniProt Q14204)	-0.00563
DSC2 C841 (UniProt Q02487)	-0.129
EIF4G3 C1411	-0.354
DTYMK C31 (UniProt P23919)	-0.0848
DTX3L C250 (UniProt Q8TDB6)	0.181
EIF3I C76	-0.0157

— the supplement of paper PMC11732987, “Enantioselective OTUD7B fragment discovery through chemoproteomics screening and high-throughput optimisation” (Communications Chemistry, 2025)
